PubChem BioAssay AID1671195 | Yale University, 2021

Screen: 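Knockdowns that increase or decrease uptake of fluorescent LDL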 (primary screen)
Cells: human Huh7 hepatoma cells
Reagent: siRNA pool against human genes, 18 nM
Duration: about 2 to 2.5 days of knockdown, then 8 h LDL uptake
Treatment: DiI-labelled LDL at 30 µg/ml for 8 h, in lipoprotein-deficient serum medium
Measured: 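Per-cell DiI-LDL intensity by automated imaging; well means scaled to the plate median and given as a robust z-score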
Reading the numbers: robust z-score: higher = more LDL uptake after knockdown
Rule for the call: 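Active when two or more replicates show a robust z-score above 2 or below -2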
This is an unselected part of about 22,000 deposited reagents. In the full data, about 1,510 (6.9%) got an active call. 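Active includes knockdowns raising or lowering LDL uptake; positive z-scores mean more uptake, negative mean less.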

After knock-down of ZNF827, the record shows robust z-score, replicate 1 = 1.17; robust z-score, replicate 2 = 0.411; robust z-score, replicate 3 = 0.997; inactive.
LOC400647 (retired record) scored robust z-score, replicate 1 = 0.914; robust z-score, replicate 2 = 1.11; robust z-score, replicate 3 = 0.712; inactive.
Against LOC285638 the deposit lists robust z-score, replicate 1 = -0.254; robust z-score, replicate 2 = -0.193; robust z-score, replicate 3 = -0.226; inactive.
Knock-down of UFD1P1 resulted in: robust z-score, replicate 1 = 1.02; robust z-score, replicate 2 = 1.12; robust z-score, replicate 3 = 1.44; inactive.
LOC285018 (retired record) gave robust z-score, replicate 1 = -1.08; robust z-score, replicate 2 = -1.53; robust z-score, replicate 3 = -1.51; inactive.
After knock-down of UNC50, the screen gave robust z-score, replicate 1 = 1.68; robust z-score, replicate 2 = -0.491; robust z-score, replicate 3 = 0.924; inactive.
Depletion of ST18 gave: robust z-score, replicate 1 = -0.65; robust z-score, replicate 2 = -0.848; robust z-score, replicate 3 = -1.15; inactive.
Depletion of LOC390342 (retired record) came out at: robust z-score, replicate 1 = -0.0234; robust z-score, replicate 2 = 0.335; robust z-score, replicate 3 = 0.187; inactive.
Against ROR1, the entry reads robust z-score, replicate 1 = -0.626; robust z-score, replicate 2 = -2.45; robust z-score, replicate 3 = -1.47; inactive.
Silencing of LOC440923 (retired record) gave: robust z-score, replicate 1 = 0.158; robust z-score, replicate 2 = 0.0832; robust z-score, replicate 3 = 0.222; inactive.

Reformatted: 2 of the entries above.
gene knocked down | robust z-score, replicate 1 | robust z-score, replicate 2 | robust z-score, replicate 3 | activity call
LOC285018 (retired record) | -1.08 | -1.53 | -1.51 | inactive
UNC50 | 1.68 | -0.491 | 0.924 | inactive

Next reagents follow.
Silencing of KLRG2 gave: robust z-score, replicate 1 = 1.7; robust z-score, replicate 2 = 1.39; robust z-score, replicate 3 = 1.23; inactive.
Knock-down of LOC400763 (retired record) came out at: robust z-score, replicate 1 = 1.24; robust z-score, replicate 2 = 1.6; robust z-score, replicate 3 = 1.28; inactive.
Knock-down of SNX10 resulted in: robust z-score, replicate 1 = -2.07; robust z-score, replicate 2 = -2.17; robust z-score, replicate 3 = -2.26; active.
Against C1orf122, the entry reads robust z-score, replicate 1 = 0.344; robust z-score, replicate 2 = 0.524; robust z-score, replicate 3 = 0.176; inactive.
Against CBX1, the entry reads robust z-score, replicate 1 = 0.554; robust z-score, replicate 2 = 1.26; robust z-score, replicate 3 = 0.347; inactive.
With knock-down of SMPDL3A, the screen gave robust z-score, replicate 1 = 0.211; robust z-score, replicate 2 = -0.374; robust z-score, replicate 3 = -0.679; inactive.
DENND10P1 showed robust z-score, replicate 1 = -0.582; robust z-score, replicate 2 = -0.0118; robust z-score, replicate 3 = 0.926; inactive.
Against CACNA1C, the entry reads robust z-score, replicate 1 = 0.759; robust z-score, replicate 2 = -0.48; robust z-score, replicate 3 = 0.391; inactive.
After knock-down of SLC2A14, the record shows robust z-score, replicate 1 = -1.45; robust z-score, replicate 2 = -1.74; robust z-score, replicate 3 = -1.33; inactive.
With knock-down of H3C11, the record shows robust z-score, replicate 1 = 2.9; robust z-score, replicate 2 = 1.08; robust z-score, replicate 3 = 2.99; active.
For LOC440111 (retired record), the entry reads robust z-score, replicate 1 = 0.397; robust z-score, replicate 2 = 0.251; robust z-score, replicate 3 = 0.37; inactive.
With knock-down of PSMB9, the screen gave robust z-score, replicate 1 = -0.209; robust z-score, replicate 2 = -0.458; robust z-score, replicate 3 = -0.0556; inactive.
C7orf33 gave robust z-score, replicate 1 = 0.0366; robust z-score, replicate 2 = -0.542; robust z-score, replicate 3 = -0.467; inactive.
For NUTM1, the entry reads robust z-score, replicate 1 = 1.14; robust z-score, replicate 2 = 1.33; robust z-score, replicate 3 = 0.954; inactive.
